Assay results taken from patent publication US5364414A, “Tinctorial composition for keratinous fibres containing oxidation dye precursors and aminoindole couplers, methods for dyeing using these compositions and new compounds” (L'Oreal, priority 1989, dated 1994).

Assay: Hues obtained by oxidative coupling of the couplers with the dye precursors
Details: oxidative coupling with para or ortho dye precursors

SMILES | hues obtained by oxidative coupling with the dye precursors
Nc1ccc2cc[nH]c2c1 [6-aminoindole] | predominantly coppery hues (warm hues)
Nc1cccc2cc[nH]c12 [7-aminoindole] | hues having ashy or deep auburn glints
